Article doi:10.1101/2025.10.21.683800
No constants are given. Whether binding was seen depends on the method and setting. In cells and extracts the contact can be indirect. Some binding calls cover weakened binding; strength is not graded here.

Amino acid sequences for entries named in this document (tags omitted).
UniProt P36873: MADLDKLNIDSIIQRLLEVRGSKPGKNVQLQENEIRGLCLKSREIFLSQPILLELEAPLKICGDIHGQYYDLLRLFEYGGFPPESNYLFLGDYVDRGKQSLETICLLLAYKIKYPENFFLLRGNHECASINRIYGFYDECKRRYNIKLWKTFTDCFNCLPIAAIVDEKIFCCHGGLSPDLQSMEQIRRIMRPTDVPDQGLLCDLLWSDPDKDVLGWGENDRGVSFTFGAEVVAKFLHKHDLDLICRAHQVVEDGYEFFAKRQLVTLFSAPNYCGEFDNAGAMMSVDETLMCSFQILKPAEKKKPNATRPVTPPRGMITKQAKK

Molecular target: PPP1CC, catalytic subunit of PP1, in HeLa lysate (human (endogenous in HeLa)) (UniProt P36873)
Test: co-IP

binding | Binder
binds | PPP1R2 in HeLa lysate (protein, UniProt P41236 1-205) MAASTASHRPIKGILKNKTSTTSSMVASAEQPRGNVDEELSKKSQKWDEMNILATYHPADKDYGLMKIDEPSTPYHSMMGDDEDACSDTEATEAMAPDILARKLAAAEGLEPKYRIQEQESSGEEDSDLSPEEREKKRQFEMKRKLHYNEGLNIKLARQLISKDLHDDDEDEEMLETADGESMNTEESNQGSTPSDQQQNKLRSS
binds | PPP1R10 in HeLa lysate (protein, UniProt Q96QC0 1-940) MGSGPIDPKELLKGLDSFLNRDGEVKSVDGISKIFSLMKEARKMVSRCTYLNILLQTRSPEILVKFIDVGGYKLLNNWLTYSKTTNNIPLLQQILLTLQHLPLTVDHLKQNNTAKLVKQLSKSSEDEELRKLASVLVSDWMAVIRSQSSTQPAEKDKKKRKDEGKSRTTLPERPLTEVKAETRAEEAPEKKREKPKSLRTTAPSHAKFRSTGLELETPSLVPVKKNASTVVVSDKYNLKPIPLKRQSNVAAPGDATPPAEKKYKPLNTTPNATKEIKVKIIPPQPMEGLGFLDALNSAPVPGIKIKKKKKVLSPTAAKPSPFEGKTSTEPSTAKPSSPEPAPPSEAMDADRPGTPVPPVEVPELMDTASLEPGALDAKPVESPGDPNQLTRKGRKRKSVTWPEEGKLREYFYFELDETERVNVNKIKDFGEAAKREILSDRHAFETARRLSHDNMEEKVPWVCPRPLVLPSPLVTPGSNSQERYIQAEREKGILQELFLNKESPHEPDPEPYEPIPPKLIPLDEECSMDETPYVETLEPGGSGGSPDGAGGSKLPPVLANLMGSMGAGKGPQGPGGGGINVQEILTSIMGSPNSHPSEELLKQPDYSDKIKQMLVPHGLLGPGPIANGFPPGGPGGPKGMQHFPPGPGGPMPGPHGGPGGPVGPRLLGPPPPPRGGDPFWDGPGDPMRGGPMRGGPGPGPGPYHRGRGGRGGNEPPPPPPPFRGARGGRSGGGPPNGRGGPGGGMVGGGGHRPHEGPGGGMGNSSGHRPHEGPGGGMGSGHRPHEGPGGSMGGGGGHRPHEGPGGGISGGSGHRPHEGPGGGMGAGGGHRPHEGPGGSMGGSGGHRPHEGPGHGGPHGHRPHDVPGHRGHDHRGPPPHEHRGHDGPGHGGGGHRGHDGGHSHGGDMSNRPVCRHFMMKGNCRYENNCAFYHPGVNGPPLP
